The values below come from paper PMC10389835.

Protein sequences, listed by entry. Tags and fused reporters are not part of them.
UniProt Q96KQ7: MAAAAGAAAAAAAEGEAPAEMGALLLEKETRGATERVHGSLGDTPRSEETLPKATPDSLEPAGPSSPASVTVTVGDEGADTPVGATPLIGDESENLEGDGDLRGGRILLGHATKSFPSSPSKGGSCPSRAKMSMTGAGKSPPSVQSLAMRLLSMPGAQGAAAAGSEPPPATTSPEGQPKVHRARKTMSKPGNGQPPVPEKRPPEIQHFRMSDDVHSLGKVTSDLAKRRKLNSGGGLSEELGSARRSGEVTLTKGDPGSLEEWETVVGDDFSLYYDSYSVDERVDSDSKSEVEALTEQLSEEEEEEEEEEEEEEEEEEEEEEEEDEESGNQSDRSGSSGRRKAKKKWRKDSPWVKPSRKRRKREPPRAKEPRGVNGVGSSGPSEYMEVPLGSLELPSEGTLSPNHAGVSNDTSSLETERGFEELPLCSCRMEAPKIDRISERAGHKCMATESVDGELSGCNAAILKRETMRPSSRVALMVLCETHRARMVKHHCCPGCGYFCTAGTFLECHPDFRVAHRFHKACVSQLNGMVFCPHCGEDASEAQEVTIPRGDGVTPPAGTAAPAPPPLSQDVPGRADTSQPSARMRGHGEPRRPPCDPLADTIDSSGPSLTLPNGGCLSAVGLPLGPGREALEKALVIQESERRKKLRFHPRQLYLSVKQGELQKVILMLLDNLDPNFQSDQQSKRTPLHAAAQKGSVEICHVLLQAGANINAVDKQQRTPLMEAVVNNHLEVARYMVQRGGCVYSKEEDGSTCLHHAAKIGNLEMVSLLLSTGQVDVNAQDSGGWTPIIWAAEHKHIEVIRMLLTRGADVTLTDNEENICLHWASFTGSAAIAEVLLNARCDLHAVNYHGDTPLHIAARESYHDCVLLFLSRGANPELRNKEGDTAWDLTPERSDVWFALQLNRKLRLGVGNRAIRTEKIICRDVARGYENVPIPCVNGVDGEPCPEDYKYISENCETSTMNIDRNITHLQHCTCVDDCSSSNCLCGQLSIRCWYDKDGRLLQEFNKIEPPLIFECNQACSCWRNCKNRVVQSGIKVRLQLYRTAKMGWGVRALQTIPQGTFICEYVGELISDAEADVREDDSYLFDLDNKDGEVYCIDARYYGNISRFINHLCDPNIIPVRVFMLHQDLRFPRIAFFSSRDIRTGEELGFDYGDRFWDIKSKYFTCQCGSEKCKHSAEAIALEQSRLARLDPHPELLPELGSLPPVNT

These are yes or no findings as the source states them, for the method shown. Binding seen in cells or lysates may run through a third protein. Some binding calls cover weakened binding; strength is not graded here.

The assay has as its target T1, activating transcription factor 7 (ATF7) (human (endogenous in HDF)) (UniProt P17544).
T1 sequence: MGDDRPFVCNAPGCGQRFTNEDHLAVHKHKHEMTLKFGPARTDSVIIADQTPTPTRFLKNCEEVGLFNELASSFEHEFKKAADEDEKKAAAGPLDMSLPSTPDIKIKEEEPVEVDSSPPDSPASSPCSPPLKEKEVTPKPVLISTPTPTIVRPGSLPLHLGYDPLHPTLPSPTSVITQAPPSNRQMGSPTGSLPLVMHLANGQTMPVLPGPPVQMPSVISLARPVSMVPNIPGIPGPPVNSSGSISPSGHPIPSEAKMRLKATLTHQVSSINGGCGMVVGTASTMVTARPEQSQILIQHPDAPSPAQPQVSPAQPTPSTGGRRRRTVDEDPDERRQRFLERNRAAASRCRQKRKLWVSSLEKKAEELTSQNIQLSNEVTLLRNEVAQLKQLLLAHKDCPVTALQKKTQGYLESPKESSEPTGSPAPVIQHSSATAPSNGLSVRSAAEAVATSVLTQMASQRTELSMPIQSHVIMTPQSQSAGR
As to the kind of experiment: co-IP; HDF cell lysates in IP-lysis buffer (50 mM Tris-HCl, 150 nM NaCl, 1 mM EDTA, 0.2% NP40, 10% glycerol) incubated with anti-ATF7 or control IgG; Protein-A-agarose beads; western blotting with anti-G9a.

“histone H3K9 dimethyltransferase G9a (from UniProt Q96KQ7 1-1210) (enzyme)”: the binding entry was “binds”.
